The values that follow are results of earlier work, collected in US6710195B2, “Method for preparing and using polyoxyethylated castor oil in pharmaceutical compositions” (SuperGen, Inc., priority 2001, dated 2004).

With `CC(=O)O[C@H]1C(=O)[C@@]2(C)[C@H]([C@H](OC(=O)c3ccccc3)[C@]3(O)C[C@H](OC(=O)[C@H](O)[C@@H](NC(=O)c4ccccc4)c4ccccc4)C(C)=C1C3(C)C)[C@]1(OC(C)=O)CO[C@@H]1C[C@@H]2O` [paclitaxel], the solubility in water entry is recorded as “less than 0.01 mg/mL”.
